This test deals with T1, GFP-tagged Munc13-4 (UniProt Q70J99).
T1 sequence: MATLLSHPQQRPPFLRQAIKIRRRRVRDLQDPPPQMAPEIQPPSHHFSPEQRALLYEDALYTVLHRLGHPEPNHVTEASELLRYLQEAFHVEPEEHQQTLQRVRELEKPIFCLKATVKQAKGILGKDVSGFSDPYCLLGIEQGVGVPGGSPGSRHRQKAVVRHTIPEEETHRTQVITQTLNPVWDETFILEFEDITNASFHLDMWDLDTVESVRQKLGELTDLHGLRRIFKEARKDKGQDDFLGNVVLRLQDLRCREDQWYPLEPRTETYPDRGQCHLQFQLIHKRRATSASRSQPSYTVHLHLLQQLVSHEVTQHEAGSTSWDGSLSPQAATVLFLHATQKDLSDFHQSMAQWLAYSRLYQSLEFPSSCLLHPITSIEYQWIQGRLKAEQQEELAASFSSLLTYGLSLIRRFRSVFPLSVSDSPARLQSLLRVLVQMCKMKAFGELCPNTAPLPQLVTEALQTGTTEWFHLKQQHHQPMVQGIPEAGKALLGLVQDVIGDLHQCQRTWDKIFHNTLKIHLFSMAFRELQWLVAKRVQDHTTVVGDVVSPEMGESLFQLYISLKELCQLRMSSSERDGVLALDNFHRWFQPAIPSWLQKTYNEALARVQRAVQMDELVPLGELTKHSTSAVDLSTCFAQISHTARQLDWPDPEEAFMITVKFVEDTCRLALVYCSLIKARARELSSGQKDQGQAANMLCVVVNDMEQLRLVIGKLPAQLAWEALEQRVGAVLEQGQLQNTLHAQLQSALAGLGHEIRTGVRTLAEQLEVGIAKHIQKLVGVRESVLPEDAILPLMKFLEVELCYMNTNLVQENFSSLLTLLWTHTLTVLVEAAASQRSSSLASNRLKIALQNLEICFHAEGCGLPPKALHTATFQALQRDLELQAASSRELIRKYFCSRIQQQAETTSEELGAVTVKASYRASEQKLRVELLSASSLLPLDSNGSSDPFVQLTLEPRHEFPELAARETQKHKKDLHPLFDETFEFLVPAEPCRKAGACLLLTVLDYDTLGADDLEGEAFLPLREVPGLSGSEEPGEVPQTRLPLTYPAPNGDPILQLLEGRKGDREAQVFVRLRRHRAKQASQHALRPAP
Put plainly: co-IP; lysates of BON cells expressing GFP or GFP-Munc13-4 precipitated with GFP nanobodies; western blotting of the pull-downs with antibodies to the partners. (In general: Immunoblotting shows a protein as a band on a membrane.)

These are yes or no findings as the source states them, for the method shown. Binding seen in cells or lysates may run through a third protein. Tags and fused reporters may be left off the sequences shown.

On to Rab7 (human (endogenous in BON)), for which the binding entry was “no binding”.

(Values after publication PMC12425082.)
